PubChem BioAssay AID686943, Drosophila RNAi Screening Center | 2013

- Purpose: 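Fly genes whose loss alters ERK activation after insulin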 (primary screen)
- System: Drosophila S2R+ haemocyte-like cells expressing YFP-tagged ERK (Rolled)
- Reagents: long dsRNA against Drosophila genes
- Conditions: insulin stimulation versus unstimulated cells; dose and duration not given
- Read-out: 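Antibody staining for doubly phosphorylated ERK divided by ERK-YFP signal, as plate z-scores, in insulin-treated and untreated cells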
- Reading the numbers: replicate 1, z-score of dpERK with insulin: higher = more active ERK per ERK-YFP after insulin
In all, the deposit lists about 23,000 reagents; this is a random part of those with a known target gene and a result. 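Extra replicates exist only for a retested subset of genes; insulin dose and duration not given; both raised and lowered dpERK matter.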 Reagents against one gene are numbered here. A plus sign joins genes that one reagent is predicted to hit. Not all columns of the deposit are shown. Reagent sequences are not shown. Not given: the amount of reagent, the time to read-out.

replicate 1, z-score of dpERK with insulin, by target gene and reagent
E(spl)m6-BFM: #1 0.38
CR32733 + CG32797: #1 0.11
CG11060: #1 0.03
fh: #1 -0.54
AdipoR: #1 0.42
CngB: #1 0.74
OtopLb: #1 -2.22
Epg5: #1 -0.32
CG9040: #1 -1.18
kermit: #1 0.78
CG10588: #1 -0.17
GILT3: #1 0.08
CG18731: #1 -0.25
CG18577: #1 -0.37
CG3581: #1 0.45
Cyp6a22: #1 0.11
Cep164: #1 -0.42
CG3309: #1 -0.07
Rac1: #1 -5.06
bon: #1 -0.61
CG15256: #1 0.94; #2 -0.22
scb: #1 -0.58; #2 1.32
Caf1-180: #1 -0.88
Pisd: #1 0.95
CG8818: #1 0.53
CG31872: #1 -0.53; #2 0.74
Jon44E: #1 0.44
Rab4 + CG42239: #1 0.27
CG8300: #1 0.12
alpha-Est6: #1 0.4
Nubp2: #1 0.28
CG33169: #1 0.01
Fmr1: #1 0.22
CG2889: #1 -0.15
CG14431: #1 0.76; #2 -2.07
CCT2: #1 -1.43
CG14834: #1 0.55
ubl: #1 1.1
Tbcc: #1 -0.4
Yod1: #1 0.48
eEF5: #1 1.24
Gbeta5: #1 -0.24
CG4116: #1 0.3
Cys: #1 0.85
CG11470: #1 0.29
mRpS21: #1 -0.48; #2 0.8
CG13023: #1 -1.21; #2 0.26
CG8323: #1 0.2
aub: #1 0.51
RNaseP:RNA: #1 0.42
CG32603: #1 -0.17; #2 0.14
subdued: #1 0.42
side-VIII: #1 0.13; #2 -1.64; #3 -0.01
CG9578: #1 -0.41
Hs2st: #1 0.15
drd: #1 0.28; #2 0.12
Pura: #1 0; #2 0.2; #3 0.79; #4 0.15; #5 0.44
CG5953: #1 -0.02; #2 -2.05

Look-ups from the entries so far:
Under “replicate 1, z-score of dpERK with insulin”, CG14431 #1 shows 0.76
Value for Rac1 under “replicate 1, z-score of dpERK with insulin”: -5.06
Under “replicate 1, z-score of dpERK with insulin”, mRpS21 #2 is entered as 0.8
side-VIII #2, replicate 1, z-score of dpERK with insulin → -1.64
Under “replicate 1, z-score of dpERK with insulin”, CG14431 #2 is entered as -2.07
drd #1, replicate 1, z-score of dpERK with insulin: 0.28
